In patent publication US20180355045A1 (LIMITED LIABILITY COMPANY ONCOMAX LLC ONCOMAX, published 2018):
No constants are given. Whether binding was seen depends on the method and setting. Some entries that bind do so weakly or less than the wild type.

Sequences of proteins named here, by UniProt entry; tags and fusion partners are left off. A change or cut given only in a name is not applied to a line headed by its entry. A line that says so, or that is headed by a name, gives the form on record, which may keep a tag or linker. Residues count along the entry.
recombinant human FGFR1 antigen PA-269#37 (P11362, residues 142-365): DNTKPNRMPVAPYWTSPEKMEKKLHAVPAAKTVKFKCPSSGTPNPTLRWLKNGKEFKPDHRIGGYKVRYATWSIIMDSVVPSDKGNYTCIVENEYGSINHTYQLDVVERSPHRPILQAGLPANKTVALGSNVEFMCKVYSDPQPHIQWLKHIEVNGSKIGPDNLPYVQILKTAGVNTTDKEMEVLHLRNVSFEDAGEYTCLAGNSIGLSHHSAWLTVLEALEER
commercial recombinant human FGFR1 (Sino Biologicals ref #10616-H08H) (P11362, form named): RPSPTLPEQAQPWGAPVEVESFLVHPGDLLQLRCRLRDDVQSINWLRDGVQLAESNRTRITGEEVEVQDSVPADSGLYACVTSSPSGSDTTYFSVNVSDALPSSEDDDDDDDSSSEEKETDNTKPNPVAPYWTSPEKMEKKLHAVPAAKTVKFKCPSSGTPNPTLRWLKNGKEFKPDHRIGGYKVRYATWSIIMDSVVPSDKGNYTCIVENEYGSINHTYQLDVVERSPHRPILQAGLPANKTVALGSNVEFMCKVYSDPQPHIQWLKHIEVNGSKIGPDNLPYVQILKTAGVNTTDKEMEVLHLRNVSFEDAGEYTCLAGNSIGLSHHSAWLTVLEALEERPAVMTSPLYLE

Experiments:
[1] = biological target: commercial recombinant human FGFR1 (Sino Biologicals ref #10616-H08H) (human) (UniProt P11362); assay: ELISA, antigen coated on the plate
[2] = biological target: recombinant human FGFR1 antigen PA-269#37 (human) (UniProt P11362); assay: ELISA, antigen coated on the plate

- binding [1]: binds
- binding [2]: binds
B1: humanized anti-FGFR1 antibody OM-RCA-01 (VH3/VL5) (antibody, human IgG1, kappa, V domains shown)
VH: QVQLQESGPGLVKPSQTLSLTCTVSGYSITSDYAWSWIRQHPGKGLEWIGYITYSGTTYYNPSLKSRVTISVDTSKNQFSLKLSSVTAADTAVYYCARDGNYFDYWGQGTLVTVSS
VL: DIQLTQSPSFLSASVGDRVTITCRASSSVSSSYLHWYQQKPGKAPKLLIYRTSTLQSGVPSRFSGSGSGTEFTLTISSLQPEDFATYYCQQWSGYPLTFGGGTKVEIKR
notes: Human IgG1 (IGHG1*03) / kappa; also called VH3A/L5; OM1
